For at least one entry, the source does not settle the construct or the ends of the probe. For part of these data: Results from cells or extracts need not show a direct contact. For part of these data: At least one verdict was read from the data and is not stated in words by the source. For part of these data: Protein sequences can lack the tags named with them.
Key:
[1] = target: rPTBP1 (UniProt P26599); test: UV crosslinking; settings: 0.5 uM rPTBP1, 10 fmol RNA, rMATR3 titrated 0-2 uM, 30 C 20 min, UV crosslink on ice (1920 mJ), RNase A1/T1 digestion, 15% denaturing PAGE, salt and pH not stated, recombinant protein, protein details: N-terminal His, label: 32P-UTP
[2] = target: endogenous PTBP1 (human (HeLa)) (UniProt P26599); test: UV crosslinking; settings: HeLa nuclear extract 20%, prevented by excess RRMs or mPRI-RRMs, 30 C 20 min, 10 fmol RNA, UV crosslink on ice (1920 mJ), RNase A1/T1 digestion, 15% denaturing PAGE, salt and pH not stated, protein in an extract, label: 32P-UTP
[3] = target: rMATR3 mPRI-RRMs (UniProt P43243); test: UV crosslinking competition; settings: recombinant protein, residues 341-592, label: 32P-UTP
[4] = target: T1, rMATR3 RRMs (UniProt P43243); test: UV crosslinking competition; settings: 0.5 uM in HeLa nuclear extract, prevents endogenous PTBP1 crosslinking; recombinant protein; residues 362-592; label: 32P-UTP
T1 sequence (looked up): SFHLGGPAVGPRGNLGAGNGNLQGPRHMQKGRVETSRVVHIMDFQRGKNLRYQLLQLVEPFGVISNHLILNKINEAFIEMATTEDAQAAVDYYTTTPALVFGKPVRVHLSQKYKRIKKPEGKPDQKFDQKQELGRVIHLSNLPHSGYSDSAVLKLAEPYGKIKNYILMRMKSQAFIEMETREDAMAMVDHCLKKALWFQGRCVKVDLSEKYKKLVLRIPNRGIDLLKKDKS

The chains behind the UniProt entries cited, without tags or fusion partners. Where a name states a change or a piece, a line headed by the entry shows the natural chain unless it says otherwise.
UniProt P26599: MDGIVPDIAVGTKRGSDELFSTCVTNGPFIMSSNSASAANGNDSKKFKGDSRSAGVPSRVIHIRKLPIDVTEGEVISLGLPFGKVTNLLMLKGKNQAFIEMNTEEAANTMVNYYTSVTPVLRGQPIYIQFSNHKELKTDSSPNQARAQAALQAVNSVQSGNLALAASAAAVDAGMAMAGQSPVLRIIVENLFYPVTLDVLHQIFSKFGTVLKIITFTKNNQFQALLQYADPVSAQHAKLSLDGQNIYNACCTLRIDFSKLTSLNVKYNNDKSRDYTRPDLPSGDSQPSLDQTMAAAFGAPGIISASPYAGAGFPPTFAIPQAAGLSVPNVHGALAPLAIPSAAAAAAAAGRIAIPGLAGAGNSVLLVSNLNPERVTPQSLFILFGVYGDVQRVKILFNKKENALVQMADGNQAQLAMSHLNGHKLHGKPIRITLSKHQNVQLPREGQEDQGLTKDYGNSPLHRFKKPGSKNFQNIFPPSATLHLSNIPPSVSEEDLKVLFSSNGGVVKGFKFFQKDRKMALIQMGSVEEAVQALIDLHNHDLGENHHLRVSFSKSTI

Measured: binding result

GAAUACGAAUUCCAUAUAUGAUCGAUAAAUAUAUGGUACCUUGCUAUCUUACAUCUUUUUACGGAUCCCAUAUAUGAUCGAUAUAUAUAAGCU [ATCTT2 RNA probe]
binds: [1] | [2]; increased by PRI-RRMs (0.5 uM) | [3]; competes with 0.5 uM rPTBP1 at equimolar concentration

GAAUACGAAUUCCCUCUUUGAAUCGAUAACUCUUUGGUACCCCUCUUUGAUCGAUAACUCUUUGGAUCCCCUCUUUGAUCGAUCUCUUUAAGCUU [CTCTT6 RNA probe]
binds: [2]; preserved with PRI-RRMs (0.5 uM) | [3]; 0.5 uM in HeLa nuclear extract, prevents endogenous PTBP1 crosslinking | [4]
